Experimental data taken from publication doi:10.1101/2022.12.22.521673 (bioRxiv, 2022).
Where two headings read alike, the source gives them in different places. These are yes or no findings as the source states them, for the method shown. Binding seen in cells or lysates may run through a third protein. Some entries that bind do so weakly or less than the wild type. For some assays here: Tags and fused reporters may be left off the sequences shown.

What was measured:
[1] = molecular target: Bmh1-FLAG (pBMH1: Bmh1-FLAG) (S. cerevisiae) (UniProt P29311); assay: co-IP
[2] = molecular target: Bmh1/2-EGFP-6×His (S. cerevisiae) (UniProt P29311+P34730); assay: pull-down
[3] = molecular target: Bmh1-FLAG (pBMH1: Bmh1-FLAG) (S. cerevisiae) (UniProt P29311); assay: co-IP; remark: listed apart in the source

Row | binding [1] | binding [2] | Molecule | also measured
1 | binds |  | Bmh2 (from UniProt P34730 1-273) | 
2 | binds |  | Bmh1 (natural protein, UniProt P29311 1-267, looked up) MSTSREDSVYLAKLAEQAERYEEMVENMKTVASSGQELSVEERNLLSVAYKNVIGARRASWRIVSSIEQKEESKEKSEHQVELICSYRSKIETELTKISDDILSVLDSHLIPSATTGESKVFYYKMKGDYHRYLAEFSSGDAREKATNASLEAYKTASEIATTELPPTHPIRLGLALNFSVFYYEIQNSPDKACHLAKQAFDDAIAELDTLSEESYKDSTLIMQLLRDNLTLWTSDMSESGQAEDQQQQQQHQQQQPPAAAEGEAPK | 
3 |  | binds | EGFP-Rim4(S367C/T368C) (protein, UniProt P38741 1-713) MKTEISTADSLRDPPSNGLKADSELVIREDIDQFLPSEVSSLGSDHQNDGEDSDTDSDNFLQDPEDDVDEESTGRGTVTTTSTSTESRGRPSSCIFVASLAAALSDDELCLSVTENFKKYGDLARVKVLRDNANRPYAFVQYNNDHDAKHALIRAQGTLLNGRRLRCEPAKVNRTLYLKNQQSIDFNEISQICEKFGGLEQIVPDRTDNQYTRRYTYPISSANSWFVQFVYRDDAIRAYANLRTDPNWIIEWAQNINVPKNYNLLHKSKFKSSKYHQNNGIINNDGSNNNDNNNSNNNNREDSRRNGDVIEEECGHVHGSDSEEKLTSDGIYDDEDKDSEITIDKRSIFVGQLDKETTREELNRRFCCHGKIQDINLIFKPTNIFAFIKYETEEAAAAALESENHAIFLNKTMHVQYKEVGGRHNRKFSGKNGGSNFNHHQFFSTRSGKTFTGPELNLAPPPINMYRKMSGGSQQESETMMPYMPMGPMPMGPPPPNAASLSDFDMFPPSYSTFMKGMMPLRRKSMPNSWSSPSSKSVNSENESVNGGDENSELPSEIPESSGRYNAANSFTTYNNSSAGNSNNNNNNNNSNSNKSQYKKRYARRSSYGYNEVPPKPYYFQPYYYHPMQYHMGPMGPLHPSQGSAGNHHPYMMVYPMSPPPPSGLDGSMIPPPINVSQSHAANHGSTHVHANEFISNDTGDINEDNKAYSLDY | 
4 |  | no binding | EGFP-Rim4(5C) (protein, UniProt P38741 1-713) MKTEISTADSLRDPPSNGLKADSELVIREDIDQFLPSEVSSLGSDHQNDGEDSDTDSDNFLQDPEDDVDEESTGRGTVTTTSTSTESRGRPSSCIFVASLAAALSDDELCLSVTENFKKYGDLARVKVLRDNANRPYAFVQYNNDHDAKHALIRAQGTLLNGRRLRCEPAKVNRTLYLKNQQSIDFNEISQICEKFGGLEQIVPDRTDNQYTRRYCYPISSANSWFVQFVYRDDAIRAYANLRTDPNWIIEWAQNINVPKNYNLLHKSKFKSSKYHQNNGIINNDGSNNNDNNNSNNNNREDSRRNGDVIEEECGHVHGSDSEEKLTSDGIYDDEDKDSEITIDKRSIFVGQLDKETTREELNRRFCCHGKIQDINLIFKPTNIFAFIKYETEEAAAAALESENHAIFLNKTMHVQYKEVGGRHNRKFSGKNGGSNFNHHQFFSTRSGKTFTGPELNLAPPPINMYRKMSGGSQQESETMMPYMPMGPMPMGPPPPNAASLSDFDMFPPSYSTFMKGMMPLRRKCMPNSWSSPSSKSVNSENESVNGGDENSELPSEIPESSGRYNAANSFTTYNNSSAGNSNNNNNNNNSNSNKSQYKKRYARRSCYGYNEVPPKPYYFQPYYYHPMQYHMGPMGPLHPSQGSAGNHHPYMMVYPMSPPPPSGLDGSMIPPPINVSQSHAANHGSTHVHANEFISNDTGDINEDNKAYSLDY | 
5 |  |  | EGFP-Rim4(3C) (protein, UniProt P38741 1-713) MKTEISTADSLRDPPSNGLKADSELVIREDIDQFLPSEVSSLGSDHQNDGEDSDTDSDNFLQDPEDDVDEESTGRGTVTTTSTSTESRGRPSSCIFVASLAAALSDDELCLSVTENFKKYGDLARVKVLRDNANRPYAFVQYNNDHDAKHALIRAQGTLLNGRRLRCEPAKVNRTLYLKNQQSIDFNEISQICEKFGGLEQIVPDRTDNQYTRRYCYPISSANSWFVQFVYRDDAIRAYANLRTDPNWIIEWAQNINVPKNYNLLHKSKFKSSKYHQNNGIINNDGSNNNDNNNSNNNNREDSRRNGDVIEEECGHVHGSDSEEKLTSDGIYDDEDKDSEITIDKRSIFVGQLDKETTREELNRRFSTHGKIQDINLIFKPTNIFAFIKYETEEAAAAALESENHAIFLNKTMHVQYKEVGGRHNRKFSGKNGGSNFNHHQFFSTRSGKTFTGPELNLAPPPINMYRKMSGGSQQESETMMPYMPMGPMPMGPPPPNAASLSDFDMFPPSYSTFMKGMMPLRRKCMPNSWSSPSSKSVNSENESVNGGDENSELPSEIPESSGRYNAANSFTTYNNSSAGNSNNNNNNNNSNSNKSQYKKRYARRSCYGYNEVPPKPYYFQPYYYHPMQYHMGPMGPLHPSQGSAGNHHPYMMVYPMSPPPPSGLDGSMIPPPINVSQSHAANHGSTHVHANEFISNDTGDINEDNKAYSLDY | binding [3]: binds weakly
